Legend:
[1] = test system: P. yoelii; experiment: In vitro activity against hepatic stage of P. yoelii (sporozoite-infected HepG2/CD81 cells or rodent hepatocytes, liver-schizont count); format: cell-based, P. yoelii (265 BY strain); settings: selectivity index = ratio of TC50 to IC50
Method: Activity against pre-erythrocytic stages was tested by in vitro assays with the human parasite P. falciparum (NF54 strain) and the rodent parasite P. yoelii (265 BY strain). The rodent parasite P. yoelii is produced in the insectarium of the INSERM Unit U511 and human parasite P. falciparum was obtained from collaboration with R. Sauerwein.
Sporozoites were obtained from infected salivary glands of Anopheles stephensi mosquitoes fed on continuous culture of P. falciparum (coll R. Sauerwein, Netherlands), or on P. yoelii parasitized mice (insectarium of the INSERM Unit U511). After aseptic dissection, salivary glands were homogenized in a glass grinder and diluted in culture medium or sterile phosphate-buffered saline (PBS).
Primary cultures of rodent or human hepatocytes were prepared from liver segments taken from mouse or from adult patients undergoing partial hepatectomy. Hepatocytes were isolated using the two-step enzymatic perfusion technique (Guguen-Guillouzo et al., 1982) and were further purified on a discontinuous Percoll gradient. […] Liver-schizonts were quantified by microscopic examination after fluorescent labeling using a primary mouse antibody directed against Plasmodium heat shock protein-70 (Renia et al., 1990) produced in INSERM unit 511 and a secondary goat anti-mouse antibody conjugated with fluorescein isothiocyanate (Sigma Aldrich).

[2] = test system: P. falciparum; experiment: In vitro activity against erythrocytic stage of P. falciparum ([3H]-hypoxanthine incorporation); format: cell-based, chloroquine-sensitive (3D7w) clone of P. falciparum; settings: selectivity index = ratio of TC50 to IC50
Method: After 48 hours, [^3H]-hypoxanthine (Amersham) was added to each well and then plates were incubated for 24 hours. Parasites were harvested, and incorporation of radioactivity was determined by liquid scintillation counting (Beckman LS1701, les Ulis, France). The counts-per-minute (cpm) was adjusted relative to controls to obtain percentages of inhibition. […] This estimation was obtained with IC50 estimator software. For the assay, the parasites were synchronized by D-sorbitol treatment.

| SMILES | SI Hepatic stage (rodent) P. yoelii [1] | SI Erythrocytic stage P. falciparum [2] |
| --- | --- | --- |
| COc1cc(C)cc(OC)c1OC(C)C(O)c1ccc2c(c1)OC(F)(F)O2 (stereo not shown) [drawing 73] | 9.55 | 3.99 |
| COc1cc(C)cc(OC)c1OC(C)C(O)c1ccc2c(c1)OC(F)(F)O2 (stereo not shown) [drawing 72] | 2.99 | 4.19 |

Reference: patent EP2177496A1, “New analogs of polysphorin and uses thereof for treating or preventing malaria” (Assistance Publique - Hôpitaux de Paris, priority 2008, dated 2010)
